Test results as given in the supplement of paper PMC7661543.
Differences between knockout arms are mostly noise.

Experiments:
[1] = system: HCC-38; assay: relative cell number vs DMSO control (72 h) (% of DMSO); higher = less growth inhibition (more cells)
Protocol: (§1)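 QMAP-Seq: a pool of 5 breast cancer cell lines (ZR-75-1, SKBR3, HCC-38, MDA-MB-231, BT-20), each carrying 12 doxycycline-inducible Cas9 sgRNA perturbations (11 knockouts plus non-targeting sgNT), was treated with compounds for 72 h at four 10-fold doses (10 nM-10 uM or 1 nM-1 uM range). Barcodes were amplified and sequenced, and cell number was interpolated from 293T spike-in standard curves. The result is expressed as % of the median of DMSO wells. Two biological replicates.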

[2] = system: BT-20; assay: as above
Protocol: as §1

O=[N+]([O-])c1ccc(O)c2ncccc12 [Nitroxoline]
relative cell number
Conditions	[1]	[2]
sgRNA knockout: sgATF3, 10 nM	85.39	87.3
sgRNA knockout: sgATF3, 100 nM	86.34	84.4
sgRNA knockout: sgATF3, 1000 nM	116	93.1
sgRNA knockout: sgATF3, 10000 nM	51.5	46.2
sgRNA knockout: sgATF4, 10 nM	92.9	90
sgRNA knockout: sgATF4, 100 nM	80.6	86.3
sgRNA knockout: sgATF4, 1000 nM	103	109
sgRNA knockout: sgATF4, 10000 nM	48.2	56.8
sgRNA knockout: sgATF6, 10 nM	83.3	83
sgRNA knockout: sgATF6, 100 nM	100	85.5
sgRNA knockout: sgATF6, 1000 nM	114	107
sgRNA knockout: sgATF6, 10000 nM	59	55.5
sgRNA knockout: sgATG7, 10 nM	89.6	86.3
sgRNA knockout: sgATG7, 100 nM	85.1	92.7
sgRNA knockout: sgATG7, 1000 nM	99.1	108
sgRNA knockout: sgATG7, 10000 nM	49	47.5
sgRNA knockout: sgERN1, 10 nM	90.6	84
sgRNA knockout: sgERN1, 100 nM	94.1	95.7
sgRNA knockout: sgERN1, 1000 nM	94.25	110
sgRNA knockout: sgERN1, 10000 nM	51.9	47.1
sgRNA knockout: sgHSF1, 10 nM	86.1	91.9
sgRNA knockout: sgHSF1, 100 nM	100	97.7
sgRNA knockout: sgHSF1, 1000 nM	92.5	91.1
sgRNA knockout: sgHSF1, 10000 nM	56.5	53.7
sgRNA knockout: sgHSF2, 10 nM	84.59	71.4
sgRNA knockout: sgHSF2, 100 nM	88.7	88.5
sgRNA knockout: sgHSF2, 1000 nM	105	119
sgRNA knockout: sgHSF2, 10000 nM	51.2	50
sgRNA knockout: sgKEAP1, 10 nM	88.1	93.4
sgRNA knockout: sgKEAP1, 100 nM	104	93.3
sgRNA knockout: sgKEAP1, 1000 nM	103	97.6
sgRNA knockout: sgKEAP1, 10000 nM	59.96	47.22
sgRNA knockout: sgNFE2L2, 10 nM	87.6	89.8
sgRNA knockout: sgNFE2L2, 100 nM	81.8	89.4
sgRNA knockout: sgNFE2L2, 1000 nM	112	84.3
sgRNA knockout: sgNFE2L2, 10000 nM	45.5	47.1
sgRNA knockout: sgSLC35F2, 10 nM	91	93.4
sgRNA knockout: sgSLC35F2, 100 nM	89.9	88.9
sgRNA knockout: sgSLC35F2, 1000 nM	108	105
sgRNA knockout: sgSLC35F2, 10000 nM	47.7	52.7
sgRNA knockout: sgXBP1, 10 nM	88.6	94.1
sgRNA knockout: sgXBP1, 100 nM	80.5	93.8
sgRNA knockout: sgXBP1, 1000 nM	110	112
sgRNA knockout: sgXBP1, 10000 nM	49.9	53.7

Oc1cccc(-c2nc(N3CCOCC3)c3oc4ncccc4c3n2)c1 [PI103]
relative cell number
Conditions	[1]	[2]
sgRNA knockout: sgATF3, 10 nM	119	123
sgRNA knockout: sgATF3, 100 nM	121	119
sgRNA knockout: sgATF3, 1000 nM	85.1	71.7
sgRNA knockout: sgATF3, 10000 nM	34.9	47.4
sgRNA knockout: sgATF4, 10 nM	109	105
sgRNA knockout: sgATF4, 100 nM	123.2	146
sgRNA knockout: sgATF4, 1000 nM	90.5	86
sgRNA knockout: sgATF4, 10000 nM	34.8	50.4
sgRNA knockout: sgATF6, 10 nM	122	101
sgRNA knockout: sgATF6, 100 nM	130	106
sgRNA knockout: sgATF6, 1000 nM	83.2	75.6
sgRNA knockout: sgATF6, 10000 nM	33	49.4
sgRNA knockout: sgATG7, 10 nM	119	107
sgRNA knockout: sgATG7, 100 nM	122	115
sgRNA knockout: sgATG7, 1000 nM	86.19	66.4
sgRNA knockout: sgATG7, 10000 nM	36.5	45.2
sgRNA knockout: sgERN1, 10 nM	118	111
sgRNA knockout: sgERN1, 100 nM	131	127
sgRNA knockout: sgERN1, 1000 nM	93.6	78.9
sgRNA knockout: sgERN1, 10000 nM	36.4	52.3
sgRNA knockout: sgHSF1, 10 nM	131	109
sgRNA knockout: sgHSF1, 100 nM	133	106
sgRNA knockout: sgHSF1, 1000 nM	92.3	77.5
sgRNA knockout: sgHSF1, 10000 nM	33.7	45.6
sgRNA knockout: sgHSF2, 10 nM	116	131
sgRNA knockout: sgHSF2, 100 nM	132	111
sgRNA knockout: sgHSF2, 1000 nM	86.4	79.9
sgRNA knockout: sgHSF2, 10000 nM	33.4	51.1
sgRNA knockout: sgKEAP1, 10 nM	138	113
sgRNA knockout: sgKEAP1, 100 nM	178	119
sgRNA knockout: sgKEAP1, 1000 nM	89.4	71.3
sgRNA knockout: sgKEAP1, 10000 nM	45.5	44.3
sgRNA knockout: sgNFE2L2, 10 nM	112	108
sgRNA knockout: sgNFE2L2, 100 nM	114	146
sgRNA knockout: sgNFE2L2, 1000 nM	89.4	83.2
sgRNA knockout: sgNFE2L2, 10000 nM	28.4	52
sgRNA knockout: sgSLC35F2, 10 nM	114	104
sgRNA knockout: sgSLC35F2, 100 nM	127.2	116
sgRNA knockout: sgSLC35F2, 1000 nM	81.4	71.5
sgRNA knockout: sgSLC35F2, 10000 nM	34.3	43.78
sgRNA knockout: sgXBP1, 10 nM	118	119
sgRNA knockout: sgXBP1, 100 nM	114	111
sgRNA knockout: sgXBP1, 1000 nM	84	81.01
sgRNA knockout: sgXBP1, 10000 nM	30.9	39.5

CC(=O)c1c(C)c2cnc(Nc3ccc(N4CCNCC4)cn3)nc2n(C2CCCC2)c1=O [Palbociclib]
relative cell number
Conditions	[1]	[2]
sgRNA knockout: sgATF3, 10 nM	81	77
sgRNA knockout: sgATF3, 100 nM	41.5	44.3
sgRNA knockout: sgATF3, 1000 nM	44.6	45
sgRNA knockout: sgATF3, 10000 nM	39.8	39.9
sgRNA knockout: sgATF4, 10 nM	80.8	78.7
sgRNA knockout: sgATF4, 100 nM	39.3	37.9
sgRNA knockout: sgATF4, 1000 nM	47.2	47.9
sgRNA knockout: sgATF4, 10000 nM	40.8	46.9
sgRNA knockout: sgATF6, 10 nM	81.7	93.3
sgRNA knockout: sgATF6, 100 nM	44	36.1
sgRNA knockout: sgATF6, 1000 nM	42.6	45
sgRNA knockout: sgATF6, 10000 nM	45.9	44
sgRNA knockout: sgATG7, 10 nM	81.2	82.2
sgRNA knockout: sgATG7, 100 nM	41.1	41.3
sgRNA knockout: sgATG7, 1000 nM	40.6	45.4
sgRNA knockout: sgATG7, 10000 nM	41.7	40.4
sgRNA knockout: sgERN1, 10 nM	79.3	75.6
sgRNA knockout: sgERN1, 100 nM	41.9	43.1
sgRNA knockout: sgERN1, 1000 nM	39.62	47
sgRNA knockout: sgERN1, 10000 nM	40	55.6
sgRNA knockout: sgHSF1, 10 nM	76.1	83.1
sgRNA knockout: sgHSF1, 100 nM	37.6	34.3
sgRNA knockout: sgHSF1, 1000 nM	48.4	50.8
sgRNA knockout: sgHSF1, 10000 nM	51.3	43
sgRNA knockout: sgHSF2, 10 nM	87.9	77.5
sgRNA knockout: sgHSF2, 100 nM	45	37
sgRNA knockout: sgHSF2, 1000 nM	42.9	45.5
sgRNA knockout: sgHSF2, 10000 nM	44.8	37.5
sgRNA knockout: sgKEAP1, 10 nM	78	85
sgRNA knockout: sgKEAP1, 100 nM	53.7	42.13
sgRNA knockout: sgKEAP1, 1000 nM	40	40.2
sgRNA knockout: sgKEAP1, 10000 nM	34.4	41.5
sgRNA knockout: sgNFE2L2, 10 nM	83.1	81.7
sgRNA knockout: sgNFE2L2, 100 nM	39	35.4
sgRNA knockout: sgNFE2L2, 1000 nM	42	57
sgRNA knockout: sgNFE2L2, 10000 nM	38.7	45.5
sgRNA knockout: sgSLC35F2, 10 nM	81.8	82
sgRNA knockout: sgSLC35F2, 100 nM	41.7	37.7
sgRNA knockout: sgSLC35F2, 1000 nM	42.8	43.7
sgRNA knockout: sgSLC35F2, 10000 nM	39.3	52.2
sgRNA knockout: sgXBP1, 10 nM	87.3	75.4
sgRNA knockout: sgXBP1, 100 nM	42.8	46.5
sgRNA knockout: sgXBP1, 1000 nM	49.3	51.9
sgRNA knockout: sgXBP1, 10000 nM	43	44.8

O=C(O)C(Cc1c[nH]c2ccccc12)N1C(=O)c2ccccc2C1=O (configuration not stated) [RG108]
relative cell number
Conditions	[1]	[2]
sgRNA knockout: sgATF3, 10 nM	87.9	111
sgRNA knockout: sgATF3, 100 nM	92.7	92.71
sgRNA knockout: sgATF3, 1000 nM	94.9	89.8
sgRNA knockout: sgATF3, 10000 nM	99.5	102
sgRNA knockout: sgATF4, 10 nM	87.7	114
sgRNA knockout: sgATF4, 100 nM	82.5	90.8
sgRNA knockout: sgATF4, 1000 nM	86.5	91.4
sgRNA knockout: sgATF4, 10000 nM	98.3	107
sgRNA knockout: sgATF6, 10 nM	93.4	97.9
sgRNA knockout: sgATF6, 100 nM	99.6	78.5
sgRNA knockout: sgATF6, 1000 nM	99.08	99.1
sgRNA knockout: sgATF6, 10000 nM	103	93.6
sgRNA knockout: sgATG7, 10 nM	86.9	93.5
sgRNA knockout: sgATG7, 100 nM	86.6	91.5
sgRNA knockout: sgATG7, 1000 nM	94.4	102
sgRNA knockout: sgATG7, 10000 nM	91.8	88.4
sgRNA knockout: sgERN1, 10 nM	87.9	88.1
sgRNA knockout: sgERN1, 100 nM	81.4	85.2
sgRNA knockout: sgERN1, 1000 nM	95.8	86.4
sgRNA knockout: sgERN1, 10000 nM	92.5	101
sgRNA knockout: sgHSF1, 10 nM	101	90.9
sgRNA knockout: sgHSF1, 100 nM	97.6	90.7
sgRNA knockout: sgHSF1, 1000 nM	103.9	101
sgRNA knockout: sgHSF1, 10000 nM	108	98.8
sgRNA knockout: sgHSF2, 10 nM	93.3	69.5
sgRNA knockout: sgHSF2, 100 nM	89.5	85.4
sgRNA knockout: sgHSF2, 1000 nM	98	123
sgRNA knockout: sgHSF2, 10000 nM	104	109
sgRNA knockout: sgKEAP1, 10 nM	86.1	107
sgRNA knockout: sgKEAP1, 100 nM	94.2	91.6
sgRNA knockout: sgKEAP1, 1000 nM	113	96.19
sgRNA knockout: sgKEAP1, 10000 nM	96.4	97.6
sgRNA knockout: sgNFE2L2, 10 nM	92.4	94.8
sgRNA knockout: sgNFE2L2, 100 nM	85.5	81.9
sgRNA knockout: sgNFE2L2, 1000 nM	85.1	106
sgRNA knockout: sgNFE2L2, 10000 nM	101	98.8
sgRNA knockout: sgSLC35F2, 10 nM	88.5	89.8
sgRNA knockout: sgSLC35F2, 100 nM	84.7	83.9
sgRNA knockout: sgSLC35F2, 1000 nM	84.1	114
sgRNA knockout: sgSLC35F2, 10000 nM	98.3	92.7
sgRNA knockout: sgXBP1, 10 nM	88.2	85
sgRNA knockout: sgXBP1, 100 nM	87.2	86.93
sgRNA knockout: sgXBP1, 1000 nM	88.7	92.3
sgRNA knockout: sgXBP1, 10000 nM	102	112
